Measurements reported in PubChem BioAssay AID1259425 (University of Nebraska Medical Center, 2018).

- Test: 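Find knockdowns that reproduce the gene expression pattern seen when KSR1 is lost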 (primary screen)
- System: HCT116 human colon cancer cells
- Reagent: siRNA pool against human genes, 50 nM siRNA
- Detection: 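After 50 nM siRNA pool, branched-DNA assay measures six marker transcripts per well, minus blank, normalised to the geometric mean of two housekeeping transcripts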
- Scale: BNIP3L mRNA: higher = more BNIP3L transcript after knockdown; NDRG1 mRNA: higher = more NDRG1 transcript after knockdown
In all, the deposit lists about 14,000 reagents; this is a random part of them. Reagents against one gene are numbered here. Not all columns of the deposit are shown. Reagent sequences are not shown. Not given: the time to read-out.

gene | reagent no. | BNIP3L mRNA, set 1 | NDRG1 mRNA, set 1
ASB13 | 1 | 0.158 | 0.278
RAB39A | 1 | 0.21 | 0.235
ART3 | 1 | 0.165 | 0.401
EXTL1 | 1 | 0.161 | 0.233
SH2D3A | 1 | 0.16 | 0.29
BID | 1 | 0.0644 | 0.196
ACTL7B | 1 | 0.0708 | 0.666
PTGR1 | 1 | 0.0798 | 0.163
HOXC5 | 1 | 0.119 | 0.0997
ERCC6L | 1 | 0.14 | 0.35
NLRP1 | 1 | 0.12 | 0.149
FBXL2 | 1 | 0.0867 | 0.146
EBI3 | 1 | 0.0654 | 0.193
SDC1 | 1 | 0.398 | 0.16
ZC3H3 | 1 | 0.166 | 0.232
RNASE4 | 1 | 0.212 | 0.151
FCGR1A | 1 | 0.147 | 0.204
HOXD11 | 1 | 0.187 | 0.58
RUNX3 | 1 | 0.0881 | 0.104
SEMA6B | 1 | 0.106 | 0.162
TJP2 | 1 | 0.136 | 0.313
CD69 | 1 | 0.0626 | 0.154
CD1C | 1 | 0.121 | 0.251
CALM2 | 1 | 0.279 | 0.088
PHF7 | 1 | 0.102 | 0.176
DEFA3 | 1 | 0.0984 | 0.122
LMLN | 1 | 0.0657 | 0.233
ZNF44 | 1 | 0.0388 | 0.0517
SERPINB1 | 1 | 0.082 | 0.288
COPE | 1 | 0.129 | 0.174
HSF4 | 1 | 0.107 | 0.257
LCN1 | 1 | 0.0766 | 0.0879
DSE | 1 | 0.148 | 0.137
CNKSR2 | 1 | 0.0674 | 0.139
UGT2B17 | 1 | 0.109 | 0.0933
TTLL4 | 1 | 0.117 | 0.384
PPM1E | 1 | 0.074 | 0.122
LIMK1 | 1 | 0.0655 | 0.213
KANK1 | 1 | 0.1 | 0.298
MED31 | 1 | 0.124 | 0.111
TPM1 | 1 | 0.0471 | 0.189
ZFHX2 | 1 | 0.206 | 0.711
ZFHX2 | 2 | 0.117 | 0.447
CSDC2 | 1 | 0.22 | 0.671
PCDHA7 | 1 | 0.06 | 0.0714
IGF2R | 1 | 0.0772 | 0.451
SYT11 | 1 | 0.25 | 0.135
MKS1 | 1 | 0.13 | 0.305
ENOPH1 | 1 | 0.0997 | 0.349
SDHB | 1 | 0.0523 | 0.186
